The values below come from the supplement of paper PMC4604168 (melanoma cell lines).

The other results are listed elsewhere or left out. Repeats are few or missing, and single values can be far off.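 Cells were imaged in 1,536-well plates, and nuclei stained with an antibody against cleaved PARP were counted against all DNA-stained nuclei to give the apoptosis fraction. Screening doses were chosen to leave most cells alive, and resting and induced cleaved-PARP levels differ strongly between cell lines.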

This experiment relates to IPC-298. Nature of the experiment: cleaved PARP positive nuclei fraction relative to DMSO control; melanoma cells; higher = more apoptosis. The note with it: library dose: low library concentration; 72 h.
Turning to `Cc1cc(Nc2cc(N3CCN(C)CC3)nc(/C=C/c3ccccc3)n2)n[nH]1` + NC(=O)Nc1cc(-c2cccc(F)c2)sc1C(=O)N[C@H]1CCCNC1 [AZD7762] (first compound 0.04 µM, partner dose 0.02 µM), the “cleaved PARP positive nuclei fraction” value is 142%.

On to `Nc1nc(F)nc2c1ncn2[C@@H]1O[C@H](CO)[C@@H](O)[C@@H]1O` [fludarabine] + O=C(Nc1cccc(Cl)c1)Nc1ncc(CCNc2ncnc3ccsc23)s1 [SNS314] (first compound 0.2 µM, partner dose 0.0008 µM), for which the “cleaved PARP positive nuclei fraction” value is 67.6%.

In the case of `CS(=O)(=O)CCNCc1ccc(-c2ccc3ncnc(Nc4ccc(OCc5cccc(F)c5)c(Cl)c4)c3c2)o1` [lapatinib] + CN(NC(=O)CC(=O)NN(C)C(=S)c1ccccc1)C(=S)c1ccccc1 [STA4783] (first compound 0.8 µM, partner dose 0.006 µM), the “cleaved PARP positive nuclei fraction” value was determined as 46.2%.

For the compound `CC(C)C[C@H](NC(=O)[C@H](Cc1ccccc1)NC(=O)c1cnccn1)B(O)O` [Bortezomib] + CO[C@@H]1[C@H](N(C)C(=O)c2ccccc2)C[C@H]2O[C@]1(C)n1c3ccccc3c3c4c(c5c6ccccc6n2c5c31)C(=O)NC4 [Midostaurin] (first compound 0.001 µM, partner dose 0.08 µM), the “cleaved PARP positive nuclei fraction” value came out at 111%.

`C[C@@H](Oc1cc(-c2cnn(C3CCNCC3)c2)cnc1N)c1c(Cl)ccc(F)c1Cl` [Crizotinib] + O=C(O)c1ccc(-c2c[nH]c3ncc(-c4ccccc4)cc23)cc1C1CCCC1 [GSK650394] (first compound 0.2 µM, partner dose 0.16 µM): the “cleaved PARP positive nuclei fraction” value was found to be 92.9%.

Take `CS(=O)(=O)CCNCc1ccc(-c2ccc3ncnc(Nc4ccc(OCc5cccc(F)c5)c(Cl)c4)c3c2)o1` [lapatinib] + NC(=O)Nc1cc(-c2cccc(F)c2)sc1C(=O)N[C@H]1CCCNC1 [AZD7762] (first compound 0.8 µM, partner dose 0.02 µM): the “cleaved PARP positive nuclei fraction” value amounted to 86.2%.

For the compound `CNC(=O)c1cc(Oc2ccc(NC(=O)Nc3ccc(Cl)c(C(F)(F)F)c3)cc2)ccn1` [sorafenib] + NC(=O)Nc1cc(-c2cccc(F)c2)sc1C(=O)N[C@H]1CCCNC1 [AZD7762] (first compound 0.4 µM, partner dose 0.02 µM), the “cleaved PARP positive nuclei fraction” value worked out at 64.5%.

As to `CN1CCN(c2ccc3nc(-c4c(N)c5c(F)cccc5[nH]c4=O)[nH]c3c2)CC1` [Dovitinib] + NCC(=O)Nc1ccc(-n2nc(C(F)(F)F)cc2-c2ccc3c(ccc4ccccc43)c2)cc1 [OSU03012] (first compound 0.1 µM, partner dose 1 µM), the “cleaved PARP positive nuclei fraction” value was found to be 106%.

`C=C(c1ccc(C(=O)O)cc1)c1cc2c(cc1C)C(C)(C)CCC2(C)C` [Bexarotene] + NC(=O)Nc1cc(-c2cccc(F)c2)sc1C(=O)N[C@H]1CCCNC1 [AZD7762] (first compound 2 µM, partner dose 0.02 µM): the “cleaved PARP positive nuclei fraction” value is 164%.

For `Cn1c(=O)n(-c2ccc(C(C)(C)C#N)cc2)c2c3cc(-c4cnc5ccccc5c4)ccc3ncc21` + Cn1cncc1[C@@](N)(c1ccc(Cl)cc1)c1ccc2c(c1)c(-c1cccc(Cl)c1)cc(=O)n2C [tipifarnib] (first compound 0.004 µM, partner dose 0.01 µM), the “cleaved PARP positive nuclei fraction” value was found to be 49.3%.

Regarding `C[C@@H](Oc1cc(-c2cnn(C3CCNCC3)c2)cnc1N)c1c(Cl)ccc(F)c1Cl` [Crizotinib] + CN(NC(=O)CC(=O)NN(C)C(=S)c1ccccc1)C(=S)c1ccccc1 [STA4783] (first compound 0.2 µM, partner dose 0.006 µM), the “cleaved PARP positive nuclei fraction” value came out at 87.6%.

Regarding `CC(C)C[C@H](NC(=O)[C@H](Cc1ccccc1)NC(=O)c1cnccn1)B(O)O` [Bortezomib] + COc1cc2c(Oc3ccc4[nH]c(C)cc4c3F)ncnc2cc1OCCCN1CCCC1 [cediranib] (first compound 0.001 µM, partner dose 0.4 µM), the “cleaved PARP positive nuclei fraction” value was determined as 57.9%.

On to `Cc1cc(Nc2cc(N3CCN(C)CC3)nc(/C=C/c3ccccc3)n2)n[nH]1` + Cc1cc(N2CCOCC2)cc2[nH]c(-c3c(NC[C@@H](O)c4cccc(Cl)c4)cc[nH]c3=O)nc12 [BMS536924] (first compound 0.04 µM, partner dose 0.2 µM), for which the “cleaved PARP positive nuclei fraction” value is 51.9%.

With `C[C@@H](Oc1cc(-c2cnn(C3CCNCC3)c2)cnc1N)c1c(Cl)ccc(F)c1Cl` [Crizotinib] + CC1(C)NC(=O)N(c2ccc([N+](=O)[O-])c(C(F)(F)F)c2)C1=O [nilutamide] (first compound 0.2 µM, partner dose 1 µM), the “cleaved PARP positive nuclei fraction” value is 196%.
